Results from patent US7851493B2, “Phenyl-1,2,4-oxadiazolone derivatives with phenyl group, processes for their preparation and their use as pharmaceuticals” (Sanofi-Aventis, priority 2005, dated 2010).
Some of these results come from one statement about several compounds together.

What follows are molecules tested against T1, human PPARalpha (Homo sapiens, UniProt Q07869) (assay: Cellular PPARalpha assay (human GAL4 luciferase reporter, stably transfected HEK cell line)). Conditions: range over the examples; units printed in the value (nM to μM).
T1 construct: amino acids S167-Y468; expressed in transfected cells; plasmid pcDNA3
T1 sequence (Q07869 167-468): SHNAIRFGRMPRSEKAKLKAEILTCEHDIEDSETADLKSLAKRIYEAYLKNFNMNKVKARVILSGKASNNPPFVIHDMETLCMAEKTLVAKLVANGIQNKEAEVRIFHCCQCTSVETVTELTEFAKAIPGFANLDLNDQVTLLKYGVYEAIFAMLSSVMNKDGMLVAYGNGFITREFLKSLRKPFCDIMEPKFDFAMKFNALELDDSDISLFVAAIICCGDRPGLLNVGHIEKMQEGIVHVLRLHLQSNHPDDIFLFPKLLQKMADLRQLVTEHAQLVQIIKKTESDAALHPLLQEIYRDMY
Assay type: cell-based

Row | Compound | EC50
1 | COc1cc(OCc2sc(-c3ccc(C(F)(F)F)cc3)nc2CSC)ccc1-c1noc(=O)[nH]1 [Example 89, 3-{2-Methoxy-4-[4-methylsulfanylmethyl-2-(4-trifluoromethyl-phenyl)-thiazol-5-ylmethoxy]-phenyl}-4H-1,2,4-oxadiazol-5-one] | ≥ 5 nM
2 | Cc1nc(COCc2ccccc2)oc1COc1ccc(-c2noc(=O)[nH]2)c(Cl)c1 [Example 56, 3-[4-(2-Benzyloxymethyl-4-methyl-oxazol-5-ylmethoxy)-2-chloro-phenyl]-4H-[1,2,4]oxadiazol-5-one] | ≥ 5 nM
3 | COc1cc(OCc2sc(-c3ccc(C(F)(F)F)cc3)nc2CCCN2CCOCC2)ccc1-c1noc(=O)[nH]1 [Example 105, 3-{2-Methoxy-4-[4-(3-morpholin-4-yl-propyl)-2-(4-trifluoromethyl-phenyl)-thiazol-5-ylmethoxy]-phenyl}-4H-1,2,4-oxadiazol-5-one] | ≥ 5 nM
4 | COc1cc(OCc2sc(-c3ccc(C(F)(F)F)cc3)nc2CN(C)CC2COCCO2)ccc1-c1noc(=O)[nH]1 (racemic) [Example 11, 3-{4-[4-[([1,4]Dioxan-2-ylmethyl-methyl-amino)-methyl]-2-(4-trifluoromethyl-phenyl)-thiazol-5-ylmethoxy]-2-methoxy-phenyl}-4H-[1,2,4]oxadiazol-5-one] | ≥ 5 nM
5 | COc1cc(OCc2sc(-c3ccc(C(F)(F)F)cc3)nc2CN2CCS(=O)(=O)CC2)ccc1-c1noc(=O)[nH]1 [Example 46, 3-{4-[4-(1,1-Dioxo-1λ^6-thiomorpholin-4-ylmethyl)-2-(4-trifluoromethyl-phenyl)-thiazol-5-ylmethoxy]-2-methoxy-phenyl}-4H-[1,2,4]oxadiazol-5-one] | ≥ 5 nM
6 | COCc1nc(/C=C/c2ccc(OC)cc2)oc1COc1ccc(-c2noc(=O)[nH]2)c(Cl)c1 [Example 55, 3-(2-Chloro-4-[4-methoxymethyl-2-[2-(4-methoxy-phenyl)-vinyl]-oxazol-5-ylmethoxy]-phenyl)-4H-[1,2,4]oxadiazol-5-one] | ≥ 5 nM
7 | O=c1[nH]c(-c2ccc(OCc3sc(-c4ccc(C(F)(F)F)cc4)nc3CN3CCOCC3)cc2F)no1 [Example 21, 3-{2-Fluoro-4-[4-morpholin-4-ylmethyl-2-(4-trifluoromethyl-phenyl)-thiazol-5-ylmethoxy]-phenyl}-4H-[1,2,4]oxadiazol-5-one] | ≥ 5 nM
8 | COc1ccc(-c2nc(CN3CCCCC3)c(COc3ccc(-c4noc(=O)[nH]4)c(C)c3)o2)cc1 [Example 65, 3-{4-[2-(4-Methoxy-phenyl)-4-piperidin-1-ylmethyl-oxazol-5-ylmethoxy]-2-methyl-phenyl}-4H-[1,2,4]oxadiazol-5-one] | ≥ 5 nM
9 | CCN(CC)Cc1nc(-c2ccc(C(F)(F)F)cc2)sc1COc1ccc(-c2noc(=O)[nH]2)c(Cl)c1 [Example 79, 3-{2-Chloro-4-[4-diethylaminomethyl-2-(4-trifluoromethyl-phenyl)-thiazol-5-ylmethoxy]-phenyl}-4H-[1,2,4]oxadiazol-5-one] | ≥ 5 nM
10 | COc1cc(OCc2sc(-c3ccc(C(F)(F)F)cc3)nc2CN[C@@H]2C[C@H]3CC[C@@H]2C3)ccc1-c1noc(=O)[nH]1 [Example 37, 3-{4-[4-((1R,2R,4S)-Bicyclo[2.2.1]hept-2-ylaminomethyl)-2-(4-trifluoromethyl-phenyl)-thiazol-5-ylmethoxy]-2-methoxy-phenyl}-4H-[1,2,4]oxadiazol-5-one] | ≥ 5 nM
11 | COc1cc(OCc2sc(-c3ccc(C(F)(F)F)cc3)nc2CN2CCC(O)CC2)ccc1-c1noc(=O)[nH]1 [Example 85, 3-{4-[4-(4-Hydroxy-piperidin-1-ylmethyl)-2-(4-trifluoromethyl-phenyl)-thiazol-5-ylmethoxy]-2-methoxy-phenyl}-4H-1,2,4-oxadiazol-5-one] | ≥ 5 nM
12 | O=c1[nH]c(-c2ccc(OCc3sc(-c4ccc(C(F)(F)F)cc4)nc3CN3C[C@H]4C[C@@H]3CN4)cc2F)no1 [Example 29, 3-{4-[4-[(1R,4R)-1-(2,5-Diaza-bicyclo[2.2.1]hept-2-yl)methyl]-2-(4-trifluoromethyl-phenyl)-thiazol-5-ylmethoxy]-2-fluoro-phenyl}-4H-[1,2,4]oxadiazol-5-one] | ≥ 5 nM
13 | COCCN(CCOC)Cc1nc(-c2ccc(OC)cc2)oc1COc1ccc(-c2noc(=O)[nH]2)c(C)c1 [Example 64] | ≥ 5 nM
14 | O=c1[nH]c(-c2cc(F)c(OCc3sc(-c4ccc(C(F)(F)F)cc4)nc3CN3CCC(C(F)(F)F)CC3)cc2OC(F)F)no1 [Example 95, 3-{2-Difluoromethoxy-5-fluoro-4-[2-(4-trifluoromethyl-phenyl)-4-(4-trifluoromethyl-piperidin-1-ylmethyl)-thiazol-5-ylmethoxy]-phenyl}-4H-1,2,4-oxadiazol-5-one] | ≥ 5 nM
15 | CCN(CCOC)Cc1nc(-c2ccc(OC)cc2)oc1COc1ccc(-c2noc(=O)[nH]2)c(Cl)c1 [Example 71, 3-{2-Chloro-4-[4-{[ethyl-(2-methoxy-ethyl)-amino]-methyl}-2-(4-methoxy-phenyl)-oxazol-5-ylmethoxy]-phenyl}-4H-[1,2,4]oxadiazol-5-one] | ≥ 5 nM
16 | O=c1[nH]c(-c2ccc(OCc3sc(-c4ccc(C(F)(F)F)cc4)nc3COCCN3CCOCC3)cc2Cl)no1 [Example 82, 3-{2-Chloro-4-[4-(2-morpholin-4-yl-ethoxymethyl)-2-(4-trifluoromethyl-phenyl)-thiazol-5-ylmethoxy]-phenyl}-4H-[1,2,4]oxadiazol-5-one] | ≥ 5 nM
17 | COc1cc(OCc2sc(-c3ccc(C(F)(F)F)cc3)nc2CN2CCCCC2)c(Br)cc1-c1noc(=O)[nH]1 [Example 31, 3-{5-Bromo-2-methoxy-4-[4-piperidin-1-ylmethyl-2-(4-trifluoromethyl-phenyl)-thiazol-5-ylmethoxy]-phenyl}-4H-[1,2,4]oxadiazol-5-one] | ≥ 5 nM
18 | COc1cc(OCc2sc(-c3ccc(C(F)(F)F)cc3)nc2CCCN(C)Cc2ccccc2)ccc1-c1noc(=O)[nH]1 [Example 111, 3-{4-[4-[3-(Benzyl-methyl-amino)-propyl]-2-(4-trifluoromethyl-phenyl)-thiazol-5-ylmethoxy]-2-methoxy-phenyl}-4H-[1,2,4]oxadiazol-5-one] | ≥ 5 nM
19 | O=c1[nH]c(-c2ccc(OCc3sc(-c4ccc(C(F)(F)F)cc4)nc3CN3CCC(C(F)(F)F)CC3)cc2OCC2CC2)no1 [Example 97, 3-{2-Cyclopropylmethoxy-4-[2-(4-trifluoromethyl-phenyl)-4-(4-trifluoromethyl-piperidin-1-ylmethyl)-thiazol-5-ylmethoxy]-phenyl}-4H-1,2,4-oxadiazol-5-one] | ≥ 5 nM
20 | Cc1nc(CCc2ccc(C(F)(F)F)cc2)oc1COc1ccc(-c2noc(=O)[nH]2)c(Cl)c1 [Example 54, 3-(2-Chloro-4-{4-methyl-2-[2-(4-trifluoromethyl-phenyl)-ethyl]-oxazol-5-ylmethoxy}-phenyl)-4H-[1,2,4]oxadiazol-5-one] | ≥ 5 nM
21 | O=c1[nH]c(-c2ccc(OCc3sc(-c4ccc(C(F)(F)F)cc4)nc3CCCN3CCCC3)cc2F)no1 [Example 110, 3-{2-Fluoro-4-[4-(3-pyrrolidin-1-yl-propyl)-2-(4-trifluoromethyl-phenyl)-thiazol-5-ylmethoxy]-phenyl}-4H-1,2,4-oxadiazol-5-one] | ≥ 5 nM
